These are yes or no findings as the source states them, for the method shown. Binding seen in cells or lysates may run through a third protein. A result given as binding can be weak or reduced; the word gives no strength. Where a sequence is shown, tags or fusion partners need not be part of it.
Biological target: GST-tagged third PDZ domain of mPDZ (UniProt O75970)
Test: pull-down

B1: His-Daple-CT (aa 1650 to 2028) (domain or fragment, UniProt Q9P219 1650-2028)
chain: GTAPPYVGVRPCSASPSSEMVTLEEFLEESNRSSPTHDTPSCRDDLLSDYFRKASDPPAIGGQPGPPAKKEGAKMPTNFVAPTVKMAAPTSEGRPLKPGQYVKPNFRLTEAEAPPSVAPRQAQPPQSLSLGRPRQAPVPPASHAPASRSASLSRAFSLASADLLRASGPEACKQESPQKLGAPEALGGRETGSHTLQSPAPPSSHSLARERTPLVGKAGSSCQGPGPRSRPLDTRRFSLAPPKEERLAPLHQSATAPAIATAGAGAAAAGSGSNSQLLHFSPAAAPAARTKPKAPPRSGEVATITPVRAGLSLSEGDGVPGQGCSEGLPAKSPGRSPDLAPHLGRALEDCSRGSVSKSSPASPEPGGDPQTVWYEYGCV
- binding: binds
